Some results were stated once for a whole list of compounds, not compound by compound.
Experiments:
[1] = system: HCC78 cells having ROS1 fusion gene; experiment: HCC78 cell growth assay (CellTiter-Glo); format: cell-based; details: 72 hours culture, 2% FBS medium, luminescence, four separate measurements; read-out: growth inhibitory effect on HCC78 cells having ROS1 fusion gene IC50
Protocol: Each compound of the present invention was assayed for its cell growth inhibitory effect using HCC78 cells having ROS1 fusion gene.
The suspension was dispensed at a concentration of 100 μL/well to a 96-well culture plate for cell culture (SUMITOMO BAKELITE, Cat No MS-0096S) (hereinafter, referred to as an assay plate). […] In this context, the final concentration of DMSO was set to 0.4%. Then, the cells were cultured for 72 hours in a CO2 incubator.
CellTiter-Glo Luminescent Cell Viability Assay reagent (Promega, Cat No G7571) was dispensed at a concentration of 100 μL/well to the assay plate. The contents in each well were reacted at room temperature for 10 minutes while stirred using a plate mixer. […] The luminescence intensity of each well was measured using EnVision. The luminescence intensity of each well obtained in four separate measurements was defined as the number of cells. IC50 values were calculated by curve fitting using GraphPad Prism version 4.

By UniProt entry, the sequences of proteins in these tests, tags left out. Residues count along the entry.
UniProt P08922, 28-2347: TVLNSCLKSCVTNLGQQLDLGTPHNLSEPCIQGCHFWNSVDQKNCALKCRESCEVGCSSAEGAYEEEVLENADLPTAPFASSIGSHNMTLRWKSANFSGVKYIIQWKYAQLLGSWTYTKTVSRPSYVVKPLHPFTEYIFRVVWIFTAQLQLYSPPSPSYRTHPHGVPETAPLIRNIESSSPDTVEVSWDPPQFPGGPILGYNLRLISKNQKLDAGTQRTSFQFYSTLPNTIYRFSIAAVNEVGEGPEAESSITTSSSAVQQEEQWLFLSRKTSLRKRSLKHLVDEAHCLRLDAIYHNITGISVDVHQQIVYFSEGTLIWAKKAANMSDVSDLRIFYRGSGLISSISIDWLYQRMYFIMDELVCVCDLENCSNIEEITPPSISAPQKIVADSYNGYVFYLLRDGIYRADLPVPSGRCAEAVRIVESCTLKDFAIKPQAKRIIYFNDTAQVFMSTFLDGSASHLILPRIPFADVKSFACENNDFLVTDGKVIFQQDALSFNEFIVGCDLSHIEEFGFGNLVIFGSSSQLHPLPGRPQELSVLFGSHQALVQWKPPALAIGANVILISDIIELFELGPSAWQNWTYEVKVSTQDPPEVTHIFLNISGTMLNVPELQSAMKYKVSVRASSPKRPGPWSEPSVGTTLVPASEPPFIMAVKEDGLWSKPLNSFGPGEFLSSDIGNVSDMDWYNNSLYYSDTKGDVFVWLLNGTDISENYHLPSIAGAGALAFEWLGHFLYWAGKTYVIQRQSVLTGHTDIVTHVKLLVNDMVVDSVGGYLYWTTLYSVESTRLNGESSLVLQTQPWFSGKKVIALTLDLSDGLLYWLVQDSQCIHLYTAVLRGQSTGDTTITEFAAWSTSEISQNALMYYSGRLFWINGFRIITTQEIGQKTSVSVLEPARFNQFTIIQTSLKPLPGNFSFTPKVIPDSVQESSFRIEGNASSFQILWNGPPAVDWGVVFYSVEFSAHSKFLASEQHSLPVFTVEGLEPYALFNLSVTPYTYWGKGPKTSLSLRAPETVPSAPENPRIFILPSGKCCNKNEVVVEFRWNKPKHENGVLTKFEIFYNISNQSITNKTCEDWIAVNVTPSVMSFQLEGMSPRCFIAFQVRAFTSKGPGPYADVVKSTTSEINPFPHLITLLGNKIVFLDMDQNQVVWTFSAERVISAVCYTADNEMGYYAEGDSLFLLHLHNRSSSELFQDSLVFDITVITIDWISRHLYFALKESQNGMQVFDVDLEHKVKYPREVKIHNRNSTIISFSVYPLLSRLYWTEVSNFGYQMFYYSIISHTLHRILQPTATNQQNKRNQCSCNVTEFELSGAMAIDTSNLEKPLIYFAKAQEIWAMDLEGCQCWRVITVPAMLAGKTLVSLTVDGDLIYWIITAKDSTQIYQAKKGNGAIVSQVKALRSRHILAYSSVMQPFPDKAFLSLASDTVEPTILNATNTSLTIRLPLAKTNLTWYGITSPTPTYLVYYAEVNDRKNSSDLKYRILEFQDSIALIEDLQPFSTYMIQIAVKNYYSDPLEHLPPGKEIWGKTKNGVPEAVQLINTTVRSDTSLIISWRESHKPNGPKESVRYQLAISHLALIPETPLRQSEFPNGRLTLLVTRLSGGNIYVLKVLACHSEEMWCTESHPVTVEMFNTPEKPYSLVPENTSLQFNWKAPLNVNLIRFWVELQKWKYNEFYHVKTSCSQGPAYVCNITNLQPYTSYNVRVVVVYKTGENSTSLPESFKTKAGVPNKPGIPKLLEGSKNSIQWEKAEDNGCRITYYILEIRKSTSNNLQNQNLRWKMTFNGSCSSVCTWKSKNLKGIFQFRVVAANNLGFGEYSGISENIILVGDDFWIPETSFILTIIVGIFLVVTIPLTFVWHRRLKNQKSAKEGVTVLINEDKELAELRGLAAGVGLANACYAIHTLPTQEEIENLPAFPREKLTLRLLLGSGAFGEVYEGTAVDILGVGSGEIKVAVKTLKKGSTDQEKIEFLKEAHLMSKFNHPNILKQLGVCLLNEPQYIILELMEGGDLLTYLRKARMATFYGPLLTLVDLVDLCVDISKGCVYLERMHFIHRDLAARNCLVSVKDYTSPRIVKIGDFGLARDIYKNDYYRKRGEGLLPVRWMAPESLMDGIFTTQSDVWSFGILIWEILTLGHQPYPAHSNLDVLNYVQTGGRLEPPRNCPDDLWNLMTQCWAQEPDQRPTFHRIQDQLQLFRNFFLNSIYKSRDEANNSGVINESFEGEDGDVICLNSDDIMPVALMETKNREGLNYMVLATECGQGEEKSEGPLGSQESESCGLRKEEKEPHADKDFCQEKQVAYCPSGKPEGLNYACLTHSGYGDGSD

ROS1 [2] = biological target: T1, ROS1 (Homo sapiens, UniProt P08922); experiment: ROS1 autophosphorylation inhibitory activity evaluation (ADP-Glo); format: biochemical; details: 200 nM inactive ROS1, ATP 1 mM, 25° C. 1.5 hours, ADP generated, four separate measurements
T1 construct: purchased Carna Biosciences 08-163
Protocol: Fifty mM HEPES (pH 7.5), 10 mM MgCl2, 0.01% Brij-58, and 2.5 mM DTT were mixed to prepare an enzymatic reaction solution. […] ATP (final concentration: 1 mM) was further added thereto at a concentration of 2.5 μL/well. The resulting plate was left standing at 25° C. for 1.5 hours to cause enzymatic reaction. After the completion of enzymatic reaction, ADP-Glo Reagent-1 (Promega, V9103) was added thereto at a concentration of 2.5 μL/well, and the plate was left standing at room temperature for 60 minutes. Then, ADP-Glo Reagent-2 (Promega) was added thereto at a concentration of 5 μL/well, and the plate was left standing at room temperature for 60 minutes. The amount of ADP generated by the autophosphorylation of ROS1 was measured using EnVision (PerkinElmer Japan). The amount of ADP generated in four separate measurements was defined as the autophosphorylation intensity of ROS1. IC50 values were calculated by curve fitting using GraphPad Prism version 4 (GraphPad software).

ROS1 [3] = biological target: T1, ROS1; experiment: ROS1 kinase inhibitory activity evaluation (mobility shift, EZ Reader II); format: biochemical; details: ROS1 25 pg/μL, FL-Peptide 22 substrate, three separate measurements
Protocol: Next, a substrate reaction solution was prepared. […] Then, the reaction stop solution was added thereto at a concentration of 40 μL/well. Substrate phosphorylation intensity was measured using EZ Reader II (Caliper Life Sciences).

| SMILES | IC50 [1] [nM] | IC50 (ROS1 [2]) [nM] | IC50 (ROS1 [3]) [nM] |
| --- | --- | --- | --- |
| CN(Cc1cncc(F)c1)c1ccc2ncc(-c3ccc(N4CC(C)(N)CC4=O)cc3)n2n1 (single isomer, unassigned) [Example 125, 4-Amino-1-[4-[6-[(5-fluoro-3-pyridyl)methyl-methylamino]imidazo[1,2-b]pyridazin-3-yl]phenyl]-4-methylpyrrolidin-2-one] | < 20 |  |  |
| C[C@@H](Nc1ccc2ncc(-c3ccc(OC4CCCC4N)cc3)n2n1)c1cccc(F)c1 (single isomer, unassigned) [Example 34] |  | < 20 | < 1 |
